Reference: US20090318338A1
No constants are given. Whether binding was seen depends on the method and setting. In cells and extracts the contact can be indirect. Some entries that bind do so weakly or less than the wild type.

Protein sequences, listed by entry. Tags and fused reporters are not part of them.
UniProt Q08775: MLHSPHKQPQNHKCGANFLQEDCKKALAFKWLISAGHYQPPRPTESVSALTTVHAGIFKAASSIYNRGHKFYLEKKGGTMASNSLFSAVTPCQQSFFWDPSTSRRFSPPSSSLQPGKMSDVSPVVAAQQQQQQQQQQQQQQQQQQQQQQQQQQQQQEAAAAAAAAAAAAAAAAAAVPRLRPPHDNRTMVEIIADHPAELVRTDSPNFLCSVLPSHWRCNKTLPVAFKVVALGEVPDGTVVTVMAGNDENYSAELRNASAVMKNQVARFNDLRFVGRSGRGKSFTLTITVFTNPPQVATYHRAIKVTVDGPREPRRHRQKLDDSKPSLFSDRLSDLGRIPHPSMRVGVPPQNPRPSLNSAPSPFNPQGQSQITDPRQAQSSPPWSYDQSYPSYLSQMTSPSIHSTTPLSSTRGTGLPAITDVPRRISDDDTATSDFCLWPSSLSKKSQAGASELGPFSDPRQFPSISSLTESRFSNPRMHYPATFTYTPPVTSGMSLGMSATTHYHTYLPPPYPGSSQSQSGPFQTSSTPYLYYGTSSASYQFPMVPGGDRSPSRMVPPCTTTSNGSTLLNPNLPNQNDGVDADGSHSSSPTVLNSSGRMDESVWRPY
UniProt A2A884: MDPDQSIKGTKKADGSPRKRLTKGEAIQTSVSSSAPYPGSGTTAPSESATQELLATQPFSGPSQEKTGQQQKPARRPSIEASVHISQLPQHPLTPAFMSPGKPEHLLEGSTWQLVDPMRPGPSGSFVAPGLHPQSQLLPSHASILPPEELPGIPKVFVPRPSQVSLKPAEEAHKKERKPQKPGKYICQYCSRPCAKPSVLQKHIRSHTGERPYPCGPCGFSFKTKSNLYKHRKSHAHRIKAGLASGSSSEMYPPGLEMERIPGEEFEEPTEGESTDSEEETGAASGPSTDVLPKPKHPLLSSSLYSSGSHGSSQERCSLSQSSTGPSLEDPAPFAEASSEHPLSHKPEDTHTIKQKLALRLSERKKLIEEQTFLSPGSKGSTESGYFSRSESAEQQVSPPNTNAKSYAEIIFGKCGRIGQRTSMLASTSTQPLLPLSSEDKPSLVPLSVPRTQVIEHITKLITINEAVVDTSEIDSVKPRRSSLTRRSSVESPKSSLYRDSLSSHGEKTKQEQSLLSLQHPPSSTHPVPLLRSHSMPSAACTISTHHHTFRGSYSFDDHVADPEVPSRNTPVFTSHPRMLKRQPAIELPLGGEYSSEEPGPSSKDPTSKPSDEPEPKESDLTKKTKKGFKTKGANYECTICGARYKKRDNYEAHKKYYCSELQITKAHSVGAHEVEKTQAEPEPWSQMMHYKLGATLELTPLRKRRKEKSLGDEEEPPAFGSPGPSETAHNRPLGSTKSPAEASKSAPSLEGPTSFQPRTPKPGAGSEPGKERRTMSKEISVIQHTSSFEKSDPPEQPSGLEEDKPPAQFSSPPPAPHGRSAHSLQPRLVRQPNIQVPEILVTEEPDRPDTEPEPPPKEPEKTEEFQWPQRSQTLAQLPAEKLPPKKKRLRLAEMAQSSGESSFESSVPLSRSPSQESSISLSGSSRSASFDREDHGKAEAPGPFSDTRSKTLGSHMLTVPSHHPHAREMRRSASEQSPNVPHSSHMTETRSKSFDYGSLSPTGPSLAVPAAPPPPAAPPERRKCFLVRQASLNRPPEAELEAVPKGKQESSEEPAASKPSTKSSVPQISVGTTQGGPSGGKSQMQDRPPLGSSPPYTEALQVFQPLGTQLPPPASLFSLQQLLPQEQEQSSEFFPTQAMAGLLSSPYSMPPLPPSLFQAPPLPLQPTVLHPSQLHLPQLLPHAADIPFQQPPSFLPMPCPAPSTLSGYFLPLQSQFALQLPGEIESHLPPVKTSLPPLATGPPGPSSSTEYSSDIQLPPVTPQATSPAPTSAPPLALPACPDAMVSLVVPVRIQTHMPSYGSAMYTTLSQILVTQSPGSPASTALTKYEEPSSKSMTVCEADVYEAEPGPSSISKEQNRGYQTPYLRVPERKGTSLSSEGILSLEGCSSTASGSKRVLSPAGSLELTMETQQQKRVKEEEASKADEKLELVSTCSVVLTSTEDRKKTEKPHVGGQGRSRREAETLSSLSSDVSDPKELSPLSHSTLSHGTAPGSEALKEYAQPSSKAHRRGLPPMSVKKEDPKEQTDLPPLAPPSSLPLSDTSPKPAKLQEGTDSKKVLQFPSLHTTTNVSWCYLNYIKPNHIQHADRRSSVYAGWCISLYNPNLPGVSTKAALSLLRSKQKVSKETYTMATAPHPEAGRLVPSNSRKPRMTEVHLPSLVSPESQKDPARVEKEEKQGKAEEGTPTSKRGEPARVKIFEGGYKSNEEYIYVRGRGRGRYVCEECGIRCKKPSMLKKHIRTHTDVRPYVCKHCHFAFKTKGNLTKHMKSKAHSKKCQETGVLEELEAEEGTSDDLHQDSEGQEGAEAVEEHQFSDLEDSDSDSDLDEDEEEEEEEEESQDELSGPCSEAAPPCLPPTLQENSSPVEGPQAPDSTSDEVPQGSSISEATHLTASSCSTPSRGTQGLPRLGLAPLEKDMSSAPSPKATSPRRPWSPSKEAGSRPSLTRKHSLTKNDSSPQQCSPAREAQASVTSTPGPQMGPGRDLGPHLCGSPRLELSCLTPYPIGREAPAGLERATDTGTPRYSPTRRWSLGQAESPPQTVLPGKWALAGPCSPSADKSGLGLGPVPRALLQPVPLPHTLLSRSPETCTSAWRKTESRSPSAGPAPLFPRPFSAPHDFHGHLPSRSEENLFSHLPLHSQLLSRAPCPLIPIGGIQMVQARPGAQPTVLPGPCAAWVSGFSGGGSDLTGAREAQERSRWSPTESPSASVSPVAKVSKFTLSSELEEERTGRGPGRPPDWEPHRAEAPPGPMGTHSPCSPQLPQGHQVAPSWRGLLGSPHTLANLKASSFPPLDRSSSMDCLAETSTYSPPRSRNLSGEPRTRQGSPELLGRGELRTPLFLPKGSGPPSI

Legend:
[1] = biological target: endogenous Runx2 in MC3T3-E1 osteoblastic cells (UniProt Q08775); assay: co-immunoprecipitation, with or without TGFβ
[2] = biological target: endogenous Runx2 in MC3T3-E1 osteoblastic cells (UniProt Q08775); assay: co-immunoprecipitation of endogenous proteins, anti-Runx2 IP, anti-Shn3 blot
[3] = biological target: endogenous Runx2 in MC3T3-E1 osteoblastic cells (UniProt Q08775); assay: co-immunoprecipitation of endogenous proteins in differentiated MC3T3-E1 cells, with or without TGF-β

Measured: binding

endogenous Shn3 in MC3T3-E1 osteoblastic cells (from UniProt A2A884 1-2348)
binds: all assays above
